Test results reported in publication PMC11781183.
These are yes or no findings as the source states them, for the method shown. In cells and extracts the contact can be indirect. Some binding calls cover weakened binding; strength is not graded here.

Molecular target: NF-κB/p65 subunit, endogenous (human (endogenous in HepG2, SK-hep1)), Q04206
Assay: co-IP; Pierce Co-IP Kit; extracts of HCC cells (HepG2, Huh7, SK-hep1; parent cells or cells with lentiviral DDX17 overexpression) incubated overnight with anti-DDX17, anti-β-catenin or anti-p65, isotype IgG as negative control; Western blotting; some cells stimulated with rCXCL8 (50 ng/mL, 24 h), TNFα (15 ng/mL, 24 h) or IL-1β (10 ng/mL, 24 h)
Settings: remark: other sources report otherwise

B1: β-catenin, endogenous, P35222 1-781 (protein)
chain: MATQADLMELDMAMEPDRKAAVSHWQQQSYLDSGIHSGATTTAPSLSGKGNPEEEDVDTSQVLYEWEQGFSQSFTQEQVADIDGQYAMTRAQRVRAAMFPETLDEGMQIPSTQFDAAHPTNVQRLAEPSQMLKHAVVNLINYQDDAELATRAIPELTKLLNDEDQVVVNKAAVMVHQLSKKEASRHAIMRSPQMVSAIVRTMQNTNDVETARCTAGTLHNLSHHREGLLAIFKSGGIPALVKMLGSPVDSVLFYAITTLHNLLLHQEGAKMAVRLAGGLQKMVALLNKTNVKFLAITTDCLQILAYGNQESKLIILASGGPQALVNIMRTYTYEKLLWTTSRVLKVLSVCSSNKPAIVEAGGMQALGLHLTDPSQRLVQNCLWTLRNLSDAATKQEGMEGLLGTLVQLLGSDDINVVTCAAGILSNLTCNNYKNKMMVCQVGGIEALVRTVLRAGDREDITEPAICALRHLTSRHQEAEMAQNAVRLHYGLPVVVKLLHPPSHWPLIKATVGLIRNLALCPANHAPLREQGAIPRLVQLLVRAHQDTQRRTSMGGTQQQFVEGVRMEEIVEGCTGALHILARDVHNRIVIRGLNTIPLFVQLLYSPIENIQRVAAGVLCELAQDKEAAEAIEAEGATAPLTELLHSRNEGVATYAAAVLFRMSEDKPQDYKKRLSVELTSSLFRTEPMAWNETADLGLDIGAQGEPLGYRQDDPSYRSFHSGGYGQDALGMDPMMEHEMGGHHPGADYPVDGLPDLGHAQDLMDGLPPGDSNQLAWFDTDL
  binding: binds
